Data: PubChem BioAssay AID540317 (National Center for Advancing Translational Sciences (NCATS), 2011)
About 2,200 (0.56%) of roughly 390,000 compounds were called active. Only results without a clear call are listed here; the source files them as inconclusive. Calls follow the shape of the dose curve; as a rule, active = well fitted inhibition curve with a large enough effect; inconclusive = small, poorly fitted or top-dose-only effect; inactive = no such curve, though single readings can be large or run the other way. Some of these compounds have results that are not shown, active ones among them.

By UniProt entry, the sequences of proteins in these tests, tags left out.
UniProt P83916, whole entry: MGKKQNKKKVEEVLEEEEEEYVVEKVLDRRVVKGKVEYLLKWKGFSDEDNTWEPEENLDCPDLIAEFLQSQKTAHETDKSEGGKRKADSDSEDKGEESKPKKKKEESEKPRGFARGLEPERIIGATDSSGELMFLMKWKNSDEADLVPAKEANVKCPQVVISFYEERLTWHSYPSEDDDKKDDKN

Each molecule was assayed against Chromobox protein homolog 1 (Homo sapiens) (UniProt P83916) (assay: HTS for Inhibitors of HP1-beta Chromodomain Interactions with Methylated Histone Tails). Settings: AlphaScreen HP1-beta / biotin-H3K9me3 peptide binding.
Also: nearly all actives have a fitted effect of over 70% in size.
Potency is read from the fitted curve at half-maximal effect.

SMILES | Potency
CN(C)C1CCCC1OC(=O)C(O)(c1ccccc1)c1ccccc1 (stereo unspecified) | inconclusive: 39.8 µM
